Experimental data: PubChem BioAssay AID1259285 (Sanger Institute, 2017)

- Assay: 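Search of the kinome for kinases worth combining with drugs in colon cancer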 (primary screen)
- Cell system: human HCC56 colorectal cancer cells
- Knock-down reagent: siRNA pool against human genes
- Treatment: DMSO vehicle, or anchor drug BYL719 at 1 µM, cetuximab at 5 µg/ml, or trametinib at 10 nM
- Read-out: 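Viability as a ratio to non-targeting pool wells, averaged over replicates and turned into a robust z-score; synergy scores with BYL719, cetuximab or trametinib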
- Scale: viability robust z-score, no drug: higher = more viable cells, weaker knock-down effect; viability vs non-targeting pool, no drug: higher = more viable cells; synergy score with BYL719: higher = stronger combined killing with BYL719; synergy score with cetuximab: higher = stronger combined killing with cetuximab
- Call rule: 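Essential when the drug-free viability robust z-score falls below -3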
- Calls: active = essential without drug; inactive = no change without drug
Shown is a random part of 794 reagents. Of all reagents, 20 (2.5%) are marked active. 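Calls rest on the drug-free arm alone and ignore synergy scores; viability ratios seem to be capped at 1.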 Entries without a mark were called inactive. Not all columns of the deposit are shown. The record does not give: the amount of reagent, the time to read-out.

Gene	viability robust z-score, no drug	viability vs non-targeting pool, no drug	synergy score with BYL719	synergy score with cetuximab
CSNK2A1 (GeneID 1457)	0.458	1	-0.111	-0.142
DGKK (GeneID 139189)	0.144	0.973	-0.0144	-0.0228
LMTK3 (GeneID 114783)	0.458	1	-0.0718	-0.0719
SGK1 (GeneID 6446)	0.458	1	-0.162	-0.142
BMAL1 (GeneID 406)	-1.17	0.86	0.0864	0.017
CHEK1 (GeneID 1111)	-5.58 (active)	0.481	-0.0274	-0.0394
MAP2K5 (GeneID 5607)	0.458	1	-0.162	-0.142
STK16 (GeneID 8576)	0.458	1	0.0195	0.0984
PIM3 (GeneID 415116)	0.458	1	-0.162	-0.142
CDKN1B (GeneID 1027)	0.458	1	0.101	0.00214
IKBKE (GeneID 9641)	0.337	0.99	0.0384	-0.0238
NEK7 (GeneID 140609)	0.458	1	-0.162	-0.142
MED12 (GeneID 9968)	0.458	1	-0.161	-0.142
NRBP2 (GeneID 340371)	-2.31	0.762	-0.00115	-0.0527
GRK6 (GeneID 2870)	0.458	1	0.0613	-0.0398
KDR (GeneID 3791)	0.458	1	-0.0866	-0.142
DGKI (GeneID 9162)	0.458	1	-0.0793	-0.127
SRPK2 (GeneID 6733)	0.0526	0.965	-0.0778	0.0201

Looked up above.
DGKK (GeneID 139189), synergy score with cetuximab → -0.0228
MAP2K5 (GeneID 5607), synergy score with cetuximab: -0.142
Value for IKBKE (GeneID 9641) in “viability robust z-score, no drug”: 0.337
Entry of SGK1 (GeneID 6446) in “synergy score with BYL719”: -0.162
Under “synergy score with cetuximab”, PIM3 (GeneID 415116) shows -0.142

More records:
Gene	viability robust z-score, no drug	viability vs non-targeting pool, no drug	synergy score with BYL719	synergy score with cetuximab
CDK5R2 (GeneID 8941)	0.458	1	-0.105	-0.076
NME5 (GeneID 8382)	0.458	1	-0.0936	-0.142
EIF2AK4 (GeneID 440275)	0.458	1	-0.162	-0.142
MARK3 (GeneID 4140)	0.458	1	0.149	0.149
AK3 (GeneID 50808)	0.458	1	-0.0858	-0.142
PIKFYVE (GeneID 200576)	0.458	1	-0.143	-0.142
MAPK12 (GeneID 6300)	0.458	1	-0.162	-0.142
MED24 (GeneID 9862)	0.458	1	-0.162	-0.142
SMAD2 (GeneID 4087)	-4.16 (active)	0.604	-0.114	-0.095
NAGK (GeneID 55577)	-0.774	0.894	-0.0204	-0.182
CILK1 (GeneID 22858)	0.458	1	0.0182	0.119
GUCY2D (GeneID 3000)	-3.46 (active)	0.663	-0.096	-0.0108
ACSL6 (GeneID 23305)	0.458	1	-0.162	-0.142
HUNK (GeneID 30811)	-2.51	0.745	0.0249	-0.0766
CDK11B (GeneID 984)	0.458	1	-0.162	-0.142
NEK11 (GeneID 79858)	-1.36	0.844	0.0505	-0.114
SRPK3 (GeneID 26576)	0.458	1	-0.162	-0.142
PRKAR2A (GeneID 5576)	0.458	1	-0.103	-0.142
NEK8 (GeneID 284086)	0.458	1	-0.0701	0.0184
BRSK1 (GeneID 84446)	0.458	1	-0.0835	-0.103
HSPB8 (GeneID 26353)	0.458	1	-0.162	-0.142
STK38 (GeneID 11329)	0.458	1	0.0688	-0.0601
PANK2 (GeneID 80025)	0.458	1	-0.162	-0.142
ALPK1 (GeneID 80216)	0.458	1	-0.162	-0.142
CALM1 (GeneID 801)	-0.382	0.928	0.134	0.0177
MAP3K13 (GeneID 9175)	0.458	1	-0.0777	-0.0688
PFKP (GeneID 5214)	0.309	0.987	0.0173	-0.0714
CSNK1A1L (GeneID 122011)	0.458	1	-0.104	-0.142
CDK11A (GeneID 728642)	-0.767	0.895	-0.089	-0.103
RPS6KA3 (GeneID 6197)	0.458	1	-0.0139	-0.142
CSK (GeneID 1445)	0.458	1	-0.162	-0.142
MAPKAPK2 (GeneID 9261)	0.1	0.969	0.00681	0.0659
